# Data published in paper PMC7699381, “Rare-Earth Metal Complexes of the Antibacterial Drug Oxolinic Acid: Synthesis, Characterization, DNA/Protein Binding and Cytotoxicity Studies” (Molecules, 2020).
# System: EB-DNA system (CT-DNA)
# Experiment: Competitive binding assay with ethidium bromide (EB) through fluorescence spectroscopy
# Parameters: species or system calf
# Conditions: modified Hill fit
# Text: The manner of binding to the DNA macromolecule can be investigated through competitive binding studies with ethidium bromide (3,8-diamino-5-ethyl-6-phenylphenanthridinium bromide), a fluorescent dye; due to its aromatic ring, it can intercalate between two adjacent base pairs in the DNA structure and form a complex which emits fluorescent light; displacing EB results in a quenching effect. The Stern-Volmer constant (KSV) and the dissociation constant (K50) have been calculated from the resulting data.
# Competitive binding studies were carried out on a Jasco FP 6500 fluorometer at room temperature, using quartz cells of 1 cm path-length. The fluorescence spectra were recorded on 1.6 mL samples containing 10 µM CT-DNA and 2 µM EB in the absence and presence of increasing amounts (0–40 µM with an increment of 5 µM) of complexes and free ligands, respectively, after being kept in contact for 10 min at room temperature, under continuous stirring and in the dark. The excitation wavelength used was 500 nm and the spectra was recorded in the 520–800 nm range. Two control samples were used, the first one containing DMSO, DNA and EB and the second one just the complex.
# Data from the assay can be interpreted using the classical Stern-Volmer equation (Equation (3)):(3) F0/F=1+ KSV·[Q] where F0 and F are the fluorescence intensities of the EB-DNA samples in the absence and presence of the tested compounds and [Q] is the concentration of the compound; KSV is the Stern-Volmer constant and can be calculated from the plot of F0/F vs. [Q] as the slope.
# The ratio of binding relative to the control sample exposed only to DMSO was plotted against the logarithm of concentration. The data points were fitted using the modified Hill function with offset (Origin®) (Equation (4)):(4) y=A1+(A2−A1)×x^n/K50^n+x^n where y is the ratio of binding (F/F0) and x is the concentration, A1 is the minimum of y values, A2 is the maximum of y values, K50 is the concentration corresponding to 50% binding and n is the Hill coefficient.
compound,measurement,value
"CCn1cc(C(=O)[O][Sm]([OH])[O]C(=O)c2cn(CC)c3cc4c(cc3c2=O)OCO4)c(=O)c2cc3c(cc21)OCO3.O.O [Sm oxo, [Sm(oxo)(OH)(H2O)] · H2O]","n (Hill coefficient, EB Displacement Assay)",2.44 ± 0.82
[Tb(oxo)(OH)(H2O)] · 0.5 H2O [Tb oxo],"n (Hill coefficient, EB Displacement Assay)",2.68 ± 0.19
"CCn1cc(C(=O)[O][Y]([OH])[O]C(=O)c2cn(CC)c3cc4c(cc3c2=O)OCO4)c(=O)c2cc3c(cc21)OCO3.O [Y oxo, [Y(oxo)(OH)(H2O)]]","n (Hill coefficient, EB Displacement Assay)",1.92 ± 0.45
"CCn1cc(C(=O)[O][Eu]([OH])[O]C(=O)c2cn(CC)c3cc4c(cc3c2=O)OCO4)c(=O)c2cc3c(cc21)OCO3.O [Eu oxo, [Eu(oxo)(OH)(H2O)]]","n (Hill coefficient, EB Displacement Assay)",2.65 ± 0.73
"CCn1cc(C(=O)O)c(=O)c2cc3c(cc21)OCO3 [oxo, 5-ethyl-5,8-dihydro-8-oxo-l,3 dioxolo[4,5-g]quinoline-7-carboxylic acid, reference compound]","n (Hill coefficient, EB Displacement Assay)",2.98 ± 1.14
"CCn1cc(C(=O)[O][La]([OH])[O]C(=O)c2cn(CC)c3cc4c(cc3c2=O)OCO4)c(=O)c2cc3c(cc21)OCO3.O [La oxo, [La(oxo)(OH)(H2O)]]","n (Hill coefficient, EB Displacement Assay)",3.44 ± 0.94
[Gd(oxo)(OH)(H2O)]·0.5H2O [Gd oxo],"n (Hill coefficient, EB Displacement Assay)",1.66 ± 0.47
